According to the supplement of paper PMC10331698:
± gives the standard deviation of the averaged measurements. Most entries show no effect beyond the scatter of the controls.

Tests used:
Assay in all cases: level (log10 ratio to DMSO vehicle control); higher = higher biomarker level / cell amount than vehicle control
[1] = compound: C=CC(=O)OCC(F)(F)C(F)(F)C(F)(F)COC(=O)C=C [1H,1H,5H,5H-Perfluoro-1,5-pentanediol diacrylate]; conditions: 2200 nM; in DMSO
Method: (§1)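 BioMAP Diversity Plus panel of 12 human primary cell co-culture systems (3C, 4H, LPS, SAg, BT, BF4T, BE3C, CASM3C, HDF3CGF, KF3CT, MyoF, Mphg). Compounds were added 1 h before stimulation and left for 24 h (MyoF 48 h; BT 72 h for soluble read-outs or 6 d for IgG). Biomarkers were read by ELISA, cytotoxicity by SRB, PBMC viability and proliferation by Alamar Blue. Each well value was divided by the mean of 8 DMSO control wells on the same plate and log10 transformed; duplicate blinded samples were tested at 4 concentrations.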

[2] = compound: C=CC(=O)OCCC(F)(F)C(F)(F)C(F)(F)C(F)(F)C(F)(F)C(F)(F)C(F)(F)C(F)(F)F [8:2 Fluorotelomer acrylate]; conditions: 2200 nM; in DMSO
Method: as §1

[3] = compound: C=CC(=O)OCCC(F)(F)C(F)(F)C(F)(F)C(F)(F)F [2-(Perfluorobutyl)ethyl acrylate]; conditions: 2200 nM; in DMSO
Method: as §1

[4] = compound: FC(F)(F)C(F)(C(F)(F)F)C(F)(F)C(F)(F)CC1CO1 [3-(Perfluoro-3-methylbutyl)-1,2-propenoxide]; conditions: in DMSO
Method: as §1

[5] = compound: FC(F)(F)C(F)(F)C(F)(F)C(F)(F)C(F)(F)C(F)(F)I [Perfluoro-1-iodohexane]; conditions: in DMSO
Method: as §1

[6] = compound: FC(F)(I)C(F)(F)C(F)(F)C(F)(F)C(F)(F)C(F)(F)I [1,6-Diiodoperfluorohexane]; conditions: 2200 nM; in DMSO
Method: as §1

[7] = compound: O=C(Cl)C(F)(F)C(F)(F)C(F)(F)C(=O)Cl [Hexafluoroglutaryl chloride]; conditions: 2200 nM; in DMSO
Method: as §1

[8] = compound: O=C(O)C(F)(F)C(F)(F)C(F)(F)C(F)(F)C(F)(F)C(F)(F)C(F)(F)C(F)(F)C(F)(F)C(F)(F)C(F)(F)C(F)(F)C(F)(F)F [Perfluorotetradecanoic acid]; conditions: in DMSO
Method: as §1

[9] = compound: O=C(O)C=C(C(F)(F)F)C(F)(F)F [3,3-Bis(trifluoromethyl)-2-propenoic acid]; conditions: in DMSO
Method: as §1

[10] = compound: O=S(=O)(O)C(F)(F)C(F)(F)C(F)(F)C(F)(F)C(F)(F)C(F)(F)F [Perfluorohexanesulfonic acid]; conditions: 2200 nM; in DMSO
Method: as §1

[11] = compound: O=S(=O)(O)CCC(F)(F)C(F)(F)C(F)(F)C(F)(F)F [4:2 Fluorotelomer sulfonic acid]; conditions: 2200 nM; in DMSO
Method: as §1

[12] = compound: OCC(F)(F)C(F)(F)C(F)(F)CO [Hexafluoroamylene glycol]; conditions: 2200 nM; in DMSO
Method: as §1

[13] = compound: OCCCC(F)(F)C(F)(F)C(F)(F)C(F)(F)C(F)(F)C(F)(F)C(F)(F)F [7:3 Fluorotelomer alcohol]; conditions: 2200 nM; in DMSO
Method: as §1

Row | Test System | level (log10) [1] | level (log10) [2] | level (log10) [3] | level (log10) ([4]; 740 nM) | level (log10) ([4]; 2200 nM) | level (log10) ([5]; 2200 nM) | level (log10) ([5]; 6700 nM) | level (log10) ([5]; 20000 nM) | level (log10) ([5]; 60000 nM) | level (log10) [6] | level (log10) [7] | level (log10) ([8]; 740 nM) | level (log10) ([8]; 2200 nM) | level (log10) ([9]; 2200 nM) | level (log10) ([9]; 6700 nM) | level (log10) ([9]; 20000 nM) | level (log10) ([9]; 60000 nM) | level (log10) [10] | level (log10) [11] | level (log10) [12] | level (log10) [13]
1 | MyoF:MMP-1 | 0.0495 ± 0.056 | 0.0325 ± 0.087 | -0.017 ± 0.018 | -0.005 ± 0.0057 | -0.009 ± 0.0099 | 0.0025 ± 0.046 | 0.036 ± 0.0071 | 0.451 ± 0.19 | 0.661 ± 0.0028 | 0.139 ± 0.1 | -0.0455 ± 0.042 | 0.0115 ± 0.005 | 0.005 ± 0.0014 | 0.012 ± 0.085 | -0.0075 ± 0.0092 | -0.0445 ± 0.0078 | -0.0085 ± 0.093 | 0.014 ± 0.055 | -0.0185 ± 0.039 | -0.017 ± 0.064 | 0.0205 ± 0.071
2 | BF4T:uPA | 0.0015 ± 0.022 | -0.0195 ± 0.052 | 0.0135 ± 0.076 | -0.0065 ± 0.0035 | -0.0045 ± 0.0092 | -0.014 | -0.0075 ± 0.013 | -0.016 ± 0.024 | -0.0165 ± 0.0035 | 0.016 ± 0.014 | -0.0105 ± 0.012 | 0.0195 ± 0.028 | 0.0055 ± 0.00071 | -0.0145 ± 0.00071 | -0.0175 ± 0.0078 | -0.0195 ± 0.012 | -0.0135 ± 0.013 | 0.007 ± 0.02 | 0.001 ± 0.017 | 0.009 ± 0.018 | -0.0205 ± 0.012
3 | BF4T:CXCL8/IL-8 | -0.003 ± 0.035 | -0.0075 ± 0.042 | 0.011 ± 0.04 | 0.0185 ± 0.0035 | 0.005 ± 0.0099 | 0.014 ± 0.011 | 0.0175 ± 0.021 | -0.009 ± 0.058 | 0.016 ± 0.058 | 0.0175 ± 0.026 | 0.026 ± 0.059 | 0.0355 ± 0.0064 | 0.021 ± 0.023 | -0.003 ± 0.011 | -0.0135 ± 0.022 | -0.022 ± 0.0099 | 0.0345 ± 0.05 | 0.003 ± 0.024 | 0.011 ± 0.035 | 0.009 ± 0.011 | 0.058 ± 0.047
4 | BT:sIL-6 | -0.223 ± 0.088 | 0.0775 ± 0.0035 | -0.042 ± 0.013 | -0.0025 ± 0.016 | 0.0185 ± 0.013 | 0.0455 ± 0.012 | 0.0615 ± 0.0035 | 0.028 ± 0.057 | 0.039 ± 0.045 | -0.0075 ± 0.083 | 0.008 ± 0.0099 | -0.016 ± 0.018 | 0.257 ± 0.44 | 0.064 ± 0.041 | 0.035 ± 0.037 | -0.0575 ± 0.026 | -0.182 ± 0.018 | 0.0285 ± 0.029 | 0.001 ± 0.025 | -0.004 ± 0.0014 | 0.012 ± 0.0071
5 | KF3CT:SRB | -0.0025 ± 0.012 | 0.005 ± 0.0085 | -0.004 ± 0.0057 | -0.0075 ± 0.0035 | -0.01 ± 0.0057 | 0.005 ± 0.014 | -0.0075 ± 0.00071 | -0.0065 ± 0.00071 | 0 ± 0.011 | -0.0175 ± 0.0092 | 0.0085 ± 0.005 | 0.0015 ± 0.005 | -0.0035 ± 0.00071 | 0.001 ± 0.013 | -0.0015 ± 0.0021 | 0.003 | 0.024 ± 0.0071 | 0.0105 ± 0.03 | -0.0005 ± 0.0035 | -0.0035 ± 0.0078 | 0.0055 ± 0.0078
6 | BE3C:SRB | 0.002 ± 0.0042 | 0.008 ± 0.016 | -0.002 ± 0.0014 | -0.003 ± 0.0042 | -0.0045 ± 0.0035 | -0.005 ± 0.0014 | -0.0125 ± 0.005 | 0.001 ± 0.017 | 0 ± 0.013 | -0.0015 ± 0.0021 | 0.002 ± 0.0071 | 0.0135 ± 0.012 | -0.0015 ± 0.0078 | 0.005 ± 0.021 | -0.005 ± 0.0042 | -0.0025 ± 0.0035 | 0.01 ± 0.0057 | 0.007 ± 0.024 | 0.011 ± 0.02 | 0.011 ± 0.016 | -0.0095 ± 0.0035
